From US20210179686A1, “CELL SORTING SYSTEMS AND METHODS OF USE” (MEMORIAL SLOAN-KETTERING CANCER CENTER, priority 2018, published 2021)
No constants are given. Whether binding was seen depends on the method and setting. Some entries that bind do so weakly or less than the wild type.

How the values were obtained:
[1] = target: CD28-9C CD28TM CD3zΔ capture leucine zipper; test: CD34 and CD20 staining, flow cytometry (FIG. 16)
[2] = target: CD28-9C CD28TM CD3zΔ capture leucine zipper; test: CD34 and CD20 staining of double-transduced cells, flow cytometry (FIG. 16)

B1: RQR-RR12EE345L (designed binder)
chain: CPYSNPSLCSGGGGSELPTQGTFSNVSTNVSPAKPTTTACPYSNPSLCGGGGSGGGSALGLEIRAAFLRQRNTALRTEVAELEQEVQRLENEVSQYETRYGPLGGGK
binding [1]: binds
binding [2]: binds
